The source of these data is US20150153365A1.

Assay [1] addresses T1, zebrafish aplnra (zebrafish) (UniProt Q7SZP9).
T1 sequence (looked up): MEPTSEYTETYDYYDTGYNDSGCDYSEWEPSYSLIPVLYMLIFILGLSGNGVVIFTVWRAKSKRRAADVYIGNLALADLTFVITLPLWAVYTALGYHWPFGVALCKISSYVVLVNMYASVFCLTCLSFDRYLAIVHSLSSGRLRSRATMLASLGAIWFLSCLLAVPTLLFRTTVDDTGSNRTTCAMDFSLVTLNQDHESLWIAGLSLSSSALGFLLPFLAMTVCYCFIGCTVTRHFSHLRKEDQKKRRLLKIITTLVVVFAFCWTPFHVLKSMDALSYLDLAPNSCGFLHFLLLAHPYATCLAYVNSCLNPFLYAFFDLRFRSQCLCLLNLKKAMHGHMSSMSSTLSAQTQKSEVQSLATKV
Description: AP-ELA binding assay on transfected HEK293T cells, chromogenic alkaline phosphatase read-out.

In assay [2] the target is T1, zebrafish aplnra (zebrafish). The experiment in a line: AP-ELA binding assay on transfected 293T cells (FIG. 7G).

Results are given in words; binding and its absence hold for the method and conditions named. Some results given as binding are weak or reduced against the parent protein; the word gives no strength.

As for QRPVNLTMRRKLRKHNCLQRRCMPLHSRVPFP (peptide, not shown: large carriers) [ELA conjugated to Alkaline Phosphatase (AP-ELA)], the binding entry in assay [1] and in assay [2] was “binds” in each case.
